In US20260132221A1 one finds binding data, which are given here for one molecule.

The assay has as its target T1, human PTK7 (full length) expressed on HEK293T cells (human) (UniProt Q13308).
T1 sequence (looked up): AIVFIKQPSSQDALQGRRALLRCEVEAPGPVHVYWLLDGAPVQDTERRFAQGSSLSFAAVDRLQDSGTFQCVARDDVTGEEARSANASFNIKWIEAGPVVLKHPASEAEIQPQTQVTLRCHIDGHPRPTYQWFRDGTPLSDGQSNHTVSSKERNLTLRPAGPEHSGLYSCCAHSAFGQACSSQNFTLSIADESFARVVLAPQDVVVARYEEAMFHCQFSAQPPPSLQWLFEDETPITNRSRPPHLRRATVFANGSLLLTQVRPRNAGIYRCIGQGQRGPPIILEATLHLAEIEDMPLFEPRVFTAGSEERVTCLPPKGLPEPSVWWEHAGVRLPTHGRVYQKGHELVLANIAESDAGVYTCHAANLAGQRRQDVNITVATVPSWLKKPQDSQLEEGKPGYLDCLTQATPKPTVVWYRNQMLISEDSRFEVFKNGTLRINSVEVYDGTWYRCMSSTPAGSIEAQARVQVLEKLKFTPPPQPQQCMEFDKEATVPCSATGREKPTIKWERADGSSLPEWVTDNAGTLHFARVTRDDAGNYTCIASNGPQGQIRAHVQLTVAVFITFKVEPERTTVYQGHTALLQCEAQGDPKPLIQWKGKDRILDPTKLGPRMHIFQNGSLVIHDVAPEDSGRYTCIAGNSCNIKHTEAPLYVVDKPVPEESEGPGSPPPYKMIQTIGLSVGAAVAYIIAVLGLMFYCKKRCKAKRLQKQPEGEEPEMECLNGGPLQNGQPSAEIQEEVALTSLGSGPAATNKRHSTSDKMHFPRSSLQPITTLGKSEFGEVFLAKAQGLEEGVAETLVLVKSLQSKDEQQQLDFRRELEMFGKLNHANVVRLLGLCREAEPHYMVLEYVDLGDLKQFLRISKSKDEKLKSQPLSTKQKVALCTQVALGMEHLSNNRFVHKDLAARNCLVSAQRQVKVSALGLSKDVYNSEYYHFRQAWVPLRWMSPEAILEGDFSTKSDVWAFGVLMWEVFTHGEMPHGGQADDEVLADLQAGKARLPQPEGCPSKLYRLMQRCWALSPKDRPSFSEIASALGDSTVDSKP
Put plainly: flow cytometry and antibody-loaded magnetic particles on PTK7-expressing HEK293T cells, hybridoma screening. For orientation: In flow cytometry, cells or beads pass a laser one at a time.

No constants are given. Whether binding was seen depends on the method and setting. Some binding calls cover weakened binding; strength is not graded here.

B1: #19 antibody (antibody, V domains shown)
VH: EVQLVESGGGLVQPGRSMKLSCAASGFTFSNYDMAWVRQAPTKGLEWVTSVSSDGSTTYYRDSVKGRFTISRDNAKTTLSLQMGSLRSEDTATYYCLTLYYSHWGQGVMVTVSS
VL: DIQMTQSPASLSASLEEIVTITCQASQDIGDWLSWYQQKPGKSPQLLIYGTTTLADGVPSRFSGSRSGTQFSLKISRLQVEDIGIYYCLQAYSAPFTFGSGTKLKIK
On to B1, for which the binding result is recorded as “binds”.
